Laboratory results taken from patent US20110091945A1, “METHODS OF INCREASING BIOMASS PRODUCTIVITY, LIPID INDUCTION, AND CONTROLLING METABOLITES IN ALGAE FOR PRODUCTION OF BIOFUELS USING BIOCHEMICAL STIMULANTS” (priority 2009, published 2011).
Values joined by “and” are separate entries in the source; they are usually repeats but may differ in a detail not shown here. Equal entries are not always repeated.

System: Chlorella sorokiniana
Experiment: Malathion twelve day growth study: pH of the growth medium
Format: cell-based, Chlorella sorokiniana (UTEX 2805)

CCOC(=O)CC(SP(=S)(OC)OC)C(=O)OCC (stereo not drawn) [malathion, 2-(dimethoxyphosphinothioylthio)butanedioic acid diethyl ester]
maximum pH value of the growth medium (70 mg malathion L^−1, by day 6): about 9.5
pH of the growth medium (140 mg malathion L^−1, day 12): 9.6 and 9.23
pH of the growth medium (280 mg malathion L^−1, day 3, 6, 9 and 12): below 7
